Test results taken from the supplement of paper PMC7661543.
Differences between knockout arms are mostly noise.

Tested on: SKBR3
Experiment: relative cell number vs DMSO control (72 h) (% of DMSO); higher = less growth inhibition (more cells)
Procedure: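 QMAP-Seq: a pool of 5 breast cancer cell lines (ZR-75-1, SKBR3, HCC-38, MDA-MB-231, BT-20), each carrying 12 doxycycline-inducible Cas9 sgRNA perturbations (11 knockouts plus non-targeting sgNT), was treated with compounds for 72 h at four 10-fold doses (10 nM-10 uM or 1 nM-1 uM range). Barcodes were amplified and sequenced, and cell number was interpolated from 293T spike-in standard curves. The result is expressed as % of the median of DMSO wells. Two biological replicates.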

CC(C)(C#N)c1ccc(N2C(=O)OCc3cnc4ccc(-c5cnc6ccccc6c5)cc4c32)cc1
Conditions | relative cell number
sgRNA knockout: sgATF3, 10 nM | 89
sgRNA knockout: sgATF3, 100 nM | 90.5
sgRNA knockout: sgATF3, 1000 nM | 69.4
sgRNA knockout: sgATF3, 10000 nM | 43
sgRNA knockout: sgATF4, 10 nM | 89.8
sgRNA knockout: sgATF4, 100 nM | 102
sgRNA knockout: sgATF4, 1000 nM | 79.6
sgRNA knockout: sgATF4, 10000 nM | 42.8
sgRNA knockout: sgATF6, 10 nM | 77.3
sgRNA knockout: sgATF6, 100 nM | 120
sgRNA knockout: sgATF6, 1000 nM | 76.6
sgRNA knockout: sgATF6, 10000 nM | 44.9
sgRNA knockout: sgATG7, 10 nM | 103
sgRNA knockout: sgATG7, 100 nM | 83.9
sgRNA knockout: sgATG7, 1000 nM | 66.5
sgRNA knockout: sgATG7, 10000 nM | 49
sgRNA knockout: sgERN1, 10 nM | 88.5
sgRNA knockout: sgERN1, 100 nM | 98.1
sgRNA knockout: sgERN1, 1000 nM | 78.7
sgRNA knockout: sgERN1, 10000 nM | 37.4
sgRNA knockout: sgHSF1, 10 nM | 90.2
sgRNA knockout: sgHSF1, 100 nM | 104
sgRNA knockout: sgHSF1, 1000 nM | 86.2
sgRNA knockout: sgHSF1, 10000 nM | 35.2
sgRNA knockout: sgHSF2, 10 nM | 96.8
sgRNA knockout: sgHSF2, 100 nM | 97
sgRNA knockout: sgHSF2, 1000 nM | 87.4
sgRNA knockout: sgHSF2, 10000 nM | 42
sgRNA knockout: sgKEAP1, 10 nM | 88.7
sgRNA knockout: sgKEAP1, 100 nM | 82.1
sgRNA knockout: sgKEAP1, 1000 nM | 70.3
sgRNA knockout: sgKEAP1, 10000 nM | 41
sgRNA knockout: sgNFE2L2, 10 nM | 128
sgRNA knockout: sgNFE2L2, 100 nM | 90.7
sgRNA knockout: sgNFE2L2, 1000 nM | 67.3
sgRNA knockout: sgNFE2L2, 10000 nM | 30.2
sgRNA knockout: sgSLC35F2, 10 nM | 95
sgRNA knockout: sgSLC35F2, 100 nM | 97.2
sgRNA knockout: sgSLC35F2, 1000 nM | 74.56
sgRNA knockout: sgSLC35F2, 10000 nM | 44.4
sgRNA knockout: sgXBP1, 10 nM | 115
sgRNA knockout: sgXBP1, 100 nM | 113
sgRNA knockout: sgXBP1, 1000 nM | 75.1
sgRNA knockout: sgXBP1, 10000 nM | 37.2

C=C(C)[C@@H]1CC[C@]2(C(=O)O)CC[C@]3(C)[C@H](CC[C@@H]4[C@@]5(C)CC[C@H](O)C(C)(C)[C@@H]5CC[C@]43C)[C@@H]12 [BetulinicAcid]
Conditions | relative cell number
sgRNA knockout: sgATF3, 10 nM | 95.5
sgRNA knockout: sgATF3, 100 nM | 94.5
sgRNA knockout: sgATF3, 1000 nM | 109
sgRNA knockout: sgATF3, 10000 nM | 77.6
sgRNA knockout: sgATF4, 10 nM | 95.8
sgRNA knockout: sgATF4, 100 nM | 70.4
sgRNA knockout: sgATF4, 1000 nM | 80.9
sgRNA knockout: sgATF4, 10000 nM | 92.2
sgRNA knockout: sgATF6, 10 nM | 76.2
sgRNA knockout: sgATF6, 100 nM | 88.9
sgRNA knockout: sgATF6, 1000 nM | 74.8
sgRNA knockout: sgATF6, 10000 nM | 91.2
sgRNA knockout: sgATG7, 10 nM | 80.3
sgRNA knockout: sgATG7, 100 nM | 86
sgRNA knockout: sgATG7, 1000 nM | 96.3
sgRNA knockout: sgATG7, 10000 nM | 94.33
sgRNA knockout: sgERN1, 10 nM | 77.9
sgRNA knockout: sgERN1, 100 nM | 91.2
sgRNA knockout: sgERN1, 1000 nM | 112
sgRNA knockout: sgERN1, 10000 nM | 114
sgRNA knockout: sgHSF1, 10 nM | 91.5
sgRNA knockout: sgHSF1, 100 nM | 98.6
sgRNA knockout: sgHSF1, 1000 nM | 95.2
sgRNA knockout: sgHSF1, 10000 nM | 75.4
sgRNA knockout: sgHSF2, 10 nM | 104
sgRNA knockout: sgHSF2, 100 nM | 81.3
sgRNA knockout: sgHSF2, 1000 nM | 92.1
sgRNA knockout: sgHSF2, 10000 nM | 93.7
sgRNA knockout: sgKEAP1, 10 nM | 89.9
sgRNA knockout: sgKEAP1, 100 nM | 87.8
sgRNA knockout: sgKEAP1, 1000 nM | 80.3
sgRNA knockout: sgKEAP1, 10000 nM | 92.8
sgRNA knockout: sgNFE2L2, 10 nM | 83.3
sgRNA knockout: sgNFE2L2, 100 nM | 92.2
sgRNA knockout: sgNFE2L2, 1000 nM | 71.5
sgRNA knockout: sgNFE2L2, 10000 nM | 84
sgRNA knockout: sgSLC35F2, 10 nM | 118
sgRNA knockout: sgSLC35F2, 100 nM | 92.2
sgRNA knockout: sgSLC35F2, 1000 nM | 88.9
sgRNA knockout: sgSLC35F2, 10000 nM | 81.08
sgRNA knockout: sgXBP1, 10 nM | 89.3
sgRNA knockout: sgXBP1, 100 nM | 101
sgRNA knockout: sgXBP1, 1000 nM | 71.3
sgRNA knockout: sgXBP1, 10000 nM | 107

C[C@]12CC[C@@H]3c4ccc(O)cc4C[C@@H](CCCCCCCCC[S+]([O-])CCCC(F)(F)C(F)(F)F)[C@H]3[C@@H]1CC[C@@H]2O (some centres not stated) [Fulvestrant]
Conditions | relative cell number
sgRNA knockout: sgATF3, 10 nM | 93
sgRNA knockout: sgATF3, 100 nM | 63.6
sgRNA knockout: sgATF3, 1000 nM | 78.6
sgRNA knockout: sgATF3, 10000 nM | 88.9
sgRNA knockout: sgATF4, 10 nM | 80.8
sgRNA knockout: sgATF4, 100 nM | 91.7
sgRNA knockout: sgATF4, 1000 nM | 97.7
sgRNA knockout: sgATF4, 10000 nM | 75.3
sgRNA knockout: sgATF6, 10 nM | 82.7
sgRNA knockout: sgATF6, 100 nM | 95.1
sgRNA knockout: sgATF6, 1000 nM | 101.7
sgRNA knockout: sgATF6, 10000 nM | 79.2
sgRNA knockout: sgATG7, 10 nM | 101
sgRNA knockout: sgATG7, 100 nM | 72.2
sgRNA knockout: sgATG7, 1000 nM | 90.3
sgRNA knockout: sgATG7, 10000 nM | 87.59
sgRNA knockout: sgERN1, 10 nM | 94.9
sgRNA knockout: sgERN1, 100 nM | 94.7
sgRNA knockout: sgERN1, 1000 nM | 99.1
sgRNA knockout: sgERN1, 10000 nM | 96.6
sgRNA knockout: sgHSF1, 10 nM | 79.8
sgRNA knockout: sgHSF1, 100 nM | 79.1
sgRNA knockout: sgHSF1, 1000 nM | 77.3
sgRNA knockout: sgHSF1, 10000 nM | 71.3
sgRNA knockout: sgHSF2, 10 nM | 97.2
sgRNA knockout: sgHSF2, 100 nM | 89.3
sgRNA knockout: sgHSF2, 1000 nM | 94.2
sgRNA knockout: sgHSF2, 10000 nM | 85.6
sgRNA knockout: sgKEAP1, 10 nM | 81.6
sgRNA knockout: sgKEAP1, 100 nM | 63.9
sgRNA knockout: sgKEAP1, 1000 nM | 73.9
sgRNA knockout: sgKEAP1, 10000 nM | 79.7
sgRNA knockout: sgNFE2L2, 10 nM | 87.6
sgRNA knockout: sgNFE2L2, 100 nM | 87.2
sgRNA knockout: sgNFE2L2, 1000 nM | 89.3
sgRNA knockout: sgNFE2L2, 10000 nM | 79
sgRNA knockout: sgSLC35F2, 10 nM | 89.7
sgRNA knockout: sgSLC35F2, 100 nM | 81.2
sgRNA knockout: sgSLC35F2, 1000 nM | 70
sgRNA knockout: sgSLC35F2, 10000 nM | 98.4
sgRNA knockout: sgXBP1, 10 nM | 84.4
sgRNA knockout: sgXBP1, 100 nM | 73.8
sgRNA knockout: sgXBP1, 1000 nM | 87.2
sgRNA knockout: sgXBP1, 10000 nM | 73.8
